Data as given in PubChem BioAssay AID504774 (Drosophila RNAi Screening Center, 2011)
Aim: 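Knock-downs that shift viability of MMS-exposed cells relative to untreated ones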 (primary screen). Cell system: Drosophila Kc167 cells. Knock-down reagent: long dsRNA against Drosophila genes, about 0.25 µg dsRNA per well. Time to read-out: about 6 days: 3 days knock-down, then 3 days with or without MMS. Treatment: methyl methanesulphonate 0.004% (w/v) for 3 days after knock-down. Read-out: 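Viability in wells given MMS, read as ATP luminescence, normalised by quantiles plate by plate and averaged across replicates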. Scale: mean viability with MMS: higher = more surviving cells after MMS.
In all, the deposit lists about 23,000 reagents; shown is an unselected part of those with a known target gene and a result. 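Values are quantile-normalised luminescence on an arbitrary scale; higher means more cells surviving MMS.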 The numbers tell different reagents against one gene apart. Names joined by + are all predicted targets of the reagent. Not all columns of the deposit are shown.

Against PPYR1, the values are mean viability with MMS 3.55e6.
Silencing of PsGEF (retired record) #1 gave: mean viability with MMS 3.54e6.
After knock-down of PsGEF (retired record) #2, the screen gave mean viability with MMS 3.30e6.
For Trm7-32, the values are mean viability with MMS 3.60e6.
With knock-down of Lsp1alpha, the record shows mean viability with MMS 3.53e6.
With knock-down of CG34056 the results were mean viability with MMS 3.55e6.
After knock-down of CG32170, the record shows mean viability with MMS 3.50e6.
CG8028 showed mean viability with MMS 3.58e6.
After knock-down of CG13994, the screen gave mean viability with MMS 3.54e6.
Depletion of E(spl)m3-HLH #1 gave: mean viability with MMS 3.08e6.
For E(spl)m3-HLH #2 the deposit lists mean viability with MMS 3.08e6.
With knock-down of CG44774, the record shows mean viability with MMS 3.49e6.
CG31855 scored mean viability with MMS 3.44e6.
Knock-down of CG11560 came out at: mean viability with MMS 3.69e6.
For dUTPase, the entry reads mean viability with MMS 3.72e6.
OS9 + Hf showed mean viability with MMS 3.51e6.
hry #1 scored mean viability with MMS 3.10e6.
Against hry #2, the values are mean viability with MMS 3.38e6.
Silencing of CG9240 gave: mean viability with MMS 3.59e6.
Silencing of CG10352 gave: mean viability with MMS 3.61e6.
After knock-down of Pka-R2, the screen gave mean viability with MMS 3.50e6.
Against CG4691, the entry reads mean viability with MMS 3.56e6.
Against Npc2b the deposit lists mean viability with MMS 3.69e6.
For CG14443, the values are mean viability with MMS 3.63e6.
Against CG11149 the deposit lists mean viability with MMS 3.56e6.
With knock-down of RhoGAP92B #1, the record shows mean viability with MMS 3.51e6.
For RhoGAP92B #2, the entry reads mean viability with MMS 3.36e6.
Against CG7131, the values are mean viability with MMS 3.75e6.
Against Ice2, the entry reads mean viability with MMS 3.43e6.
After knock-down of tty the results were mean viability with MMS 3.67e6.
Against Mgat2, the values are mean viability with MMS 3.56e6.
en gave mean viability with MMS 3.60e6.
After knock-down of Pex14, the record shows mean viability with MMS 3.68e6.
After knock-down of FucT6 the results were mean viability with MMS 3.60e6.
Ufsp2 scored mean viability with MMS 3.68e6.

In a second layout: results already given
predicted target,reagent,mean viability with MMS
Npc2b,1,3.69e6
CG14443,1,3.63e6
CG11149,1,3.56e6
RhoGAP92B,1,3.51e6
RhoGAP92B,2,3.36e6
